According to PMC5613149:
No constants are given. Whether binding was seen depends on the method and setting. In cells and extracts the contact can be indirect.

Protein sequences, listed by entry. Tags and fused reporters are not part of them.
UniProt P20339: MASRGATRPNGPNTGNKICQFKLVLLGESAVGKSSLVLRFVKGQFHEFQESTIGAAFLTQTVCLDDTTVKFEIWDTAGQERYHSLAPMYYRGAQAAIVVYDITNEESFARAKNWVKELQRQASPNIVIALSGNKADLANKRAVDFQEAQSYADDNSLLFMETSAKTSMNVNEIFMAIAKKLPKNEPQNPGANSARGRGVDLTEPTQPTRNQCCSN
UniProt P31387: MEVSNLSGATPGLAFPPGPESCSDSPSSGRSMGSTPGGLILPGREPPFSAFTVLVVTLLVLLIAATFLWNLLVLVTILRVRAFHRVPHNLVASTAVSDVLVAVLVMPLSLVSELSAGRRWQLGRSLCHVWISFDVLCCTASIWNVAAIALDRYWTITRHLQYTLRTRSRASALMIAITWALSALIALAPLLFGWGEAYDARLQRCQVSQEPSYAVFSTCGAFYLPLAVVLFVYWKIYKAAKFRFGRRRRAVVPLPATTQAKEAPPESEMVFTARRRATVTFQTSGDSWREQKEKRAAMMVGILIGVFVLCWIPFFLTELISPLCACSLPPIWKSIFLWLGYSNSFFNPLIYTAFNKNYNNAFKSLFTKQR

Biological target: GFP-rab5 (UniProt P20339)
Assay: FRET or BRET; acceptor-photobleaching FRET (abFRET) microscopy; N1E-115 cells co-transfected with equimolar amounts of the two plasmids, fixed with 2% paraformaldehyde for 20 min; GFP donor, mRFP/mCherry acceptor bleached in regions of interest; apparent FRET efficiency (Fapp)

binding: no binding
Substance: serotonin receptor subtype 5b, mCherry fusion (5-ht5b-mCherry) (from UniProt P31387 1-370)
